# From patent publication US11592453B2, “Personalized metabolomic profiling of specialized pro-resolving mediators” (THE BRIGHAM AND WOMEN'S HOSPITAL, INC., priority 2016, dated 2023)
# Assay: LC-MS/MS LM metabololipidomics of human whole blood during coagulation
# Settings: for LM concentration, Coagulation t = 0 h, Avg / LM concentration, Coagulation t = 0.25 h, Avg / LM concentration, Coagulation t = 0.5 h, Avg / LM concentration, Coagulation t = 1 h, Avg / LM concentration, Coagulation t = 3 h, Avg / LM concentration, Coagulation t = 6 h, Avg / LM concentration, Coagulation t = 24 h, Avg: human whole blood, mean of 12 donors
SMILES,"LM concentration, Coagulation t = 0 h, Avg","LM concentration, Coagulation t = 0.25 h, Avg","LM concentration, Coagulation t = 0.5 h, Avg","LM concentration, Coagulation t = 1 h, Avg","LM concentration, Coagulation t = 3 h, Avg","LM concentration, Coagulation t = 6 h, Avg","LM concentration, Coagulation t = 24 h, Avg",highest concentrations of SPMs generated within 24 hours of coagulation in blood (healthy donors)
"CC[C@@H](O)/C=C/C=C\C/C=C\C/C=C\C=C\[C@@H](O)CCCC(=O)O [RvE2, Resolvin E2 (5S, 18R-dihydroxy-eicosa-6E, 8Z, 11Z, 14Z, 16E-pentaenoic acid)]",— ((—) denotes concentrations < 0.1 pg/ml),— ((—) denotes concentrations < 0.1 pg/ml),— ((—) denotes concentrations < 0.1 pg/ml),— ((—) denotes concentrations < 0.1 pg/ml),— ((—) denotes concentrations < 0.1 pg/ml),— ((—) denotes concentrations < 0.1 pg/ml),— ((—) denotes concentrations < 0.1 pg/ml),
CCCCC[C@H](O)/C=C/C=C\C/C=C\C/C=C\CCCC(=O)O [15-HETE],258.2 pg/mL,303.0 pg/mL,416.2 pg/mL,1035.6 pg/mL,2220.3 pg/mL,3099.5 pg/mL,4015.6 pg/mL,
CC/C=C\CC(O)/C=C/C=C\C/C=C\C/C=C\C/C=C\CCC(=O)O (stereo not shown) [17-HDHA],61.2 pg/mL,84.5 pg/mL,59.6 pg/mL,65.2 pg/mL,152.7 pg/mL,230.8 pg/mL,439.7 pg/mL,
"CC[C@@H](O)[C@H](O)/C=C/C=C/C=C\C/C=C\C/C=C\CCCC(=O)O [RvE3, Resolvin E3 (17R,18R-dihydroxy-eicosa-5Z, 8Z, 11Z, 13E, 15E-pentaenoic acid)]",— ((—) denotes concentrations < 0.1 pg/ml),— ((—) denotes concentrations < 0.1 pg/ml),— ((—) denotes concentrations < 0.1 pg/ml),— ((—) denotes concentrations < 0.1 pg/ml),— ((—) denotes concentrations < 0.1 pg/ml),— ((—) denotes concentrations < 0.1 pg/ml),— ((—) denotes concentrations < 0.1 pg/ml),
"CC/C=C\C[C@H](O)/C=C/C=C\C/C=C\C=C\[C@@H](O)C/C=C\CCC(=O)O [RvD5, Resolvin D5 (7S, 17S-dihydroxy-docosa-4Z, 8E, 10Z, 13Z, 15E, 19Z-hexaenoic acid)]",0.8 pg/mL,1.3 pg/mL,1.1 pg/mL,1.7 pg/mL,3.4 pg/mL,6.8 pg/mL,10.7 pg/mL,115 pM
CC/C=C\CC(O)/C=C/C=C\C/C=C\C/C=C\CCCC(=O)O (stereo not shown) [15-HEPE],134.8 pg/mL,214.3 pg/mL,167.8 pg/mL,187.7 pg/mL,620.7 pg/mL,863.0 pg/mL,1370.7 pg/mL,
